Among the data in PubChem BioAssay AID256 (DTP/NCI, 2004) are T/C values, retold here.

The subject of the experiment is CD2F1 mice, L1210 leukemia ip, survival T/C. The experiment is described as follows: NCI In Vivo Anticancer Drug Screen. Data for tumor model L1210 Leukemia (intraperitoneal) in CD2F1 (CDF1) mice. To be noted: schedule: Q01DX009 (ip), higher T/C = longer survival. The method, then:
The antitumor activity of compounds was measured in mice bearing transplantable tumors. Survival or tumor size were measured and the results are expressed as the measurement made in the treated group (T) divided by the measurement made in the vehicle treated control group (C). The tumor model used in this assay is L1210 Leukemia (intraperitoneal) in CD2F1 (CDF1) mice

The list is a part of this screen's results and no random one: it gathers some chemical classes. Not every dose and run of a compound is shown. T/C: endpoint of the treated group in % of that of the vehicle group. Where survival is the endpoint, this PubChem deposit counts one and a half times the control or more as active, and values a quarter to a half above the control carry no call in these data; other NCI protocols may use other cut-offs. Schedules are NCI's codes, taken here to give the interval after Q, in days (D) or hours (H), and the number of doses after X. Some T/C values are marked as having no survivor count here; that says nothing about deaths at the dose. Some entries were tested several times; the results are listed from low to high.

Regarding `CC(=O)OCC12CC(O)C(C)=CC1OC1C(O)C(OC(C)=O)C2(C)C12CO2` (stereo not drawn), the T/C runs as follows: (T/C endpoint: mean survival time, dose: 0.31 mg/kg/injection, vehicle: saline) 106 % of control [survivor count not shown]; (T/C endpoint: mean survival time, dose: 0.62 mg/kg/injection, vehicle: saline) 104 % of control [survivor count not shown]; (T/C endpoint: mean survival time, dose: 0.63 mg/kg/injection, vehicle: saline) 112 % of control [survivor count not shown]; (T/C endpoint: mean survival time, dose: 1.25 mg/kg/injection, vehicle: saline) 108 [survivor count not shown] and 114 % of control [survivor count not shown]; (T/C endpoint: mean survival time, dose: 2.5 mg/kg/injection, vehicle: saline) 109 [survivor count not shown] and 115 % of control [survivor count not shown]; (T/C endpoint: mean survival time, dose: 5.0 mg/kg/injection, vehicle: saline) 111 % of control [survivor count not shown].
With `CC1=C[C@H]2O[C@@H]3[C@H](O)[C@@H](O)[C@](C)([C@@]2(CO)CC1)[C@@]31CO1`, the T/C (T/C endpoint: mean survival time, dose: 0.5 mg/kg/injection, vehicle: saline) was 106 [survivor count not shown], 110 [survivor count not shown], 115 [survivor count not shown], 120 % of control [survivor count not shown]; the T/C (T/C endpoint: mean survival time, dose: 1.0 mg/kg/injection, vehicle: saline) was 112 [survivor count not shown] and 128 % of control [survivor count not shown]; the T/C (T/C endpoint: mean survival time, dose: 2.0 mg/kg/injection, vehicle: saline) is 116 [survivor count not shown], 121 [survivor count not shown], 126 [survivor count not shown], 131 % of control [survivor count not shown]; the T/C (T/C endpoint: mean survival time, dose: 4.0 mg/kg/injection, vehicle: saline) was 126 [survivor count not shown], 127 [survivor count not shown], 128 % of control [survivor count not shown]; the T/C (T/C endpoint: mean survival time, dose: 8.0 mg/kg/injection, vehicle: saline) was 109 [survivor count not shown] and 120 % of control [survivor count not shown]; the T/C (T/C endpoint: mean survival time, dose: 16.0 mg/kg/injection, vehicle: saline) is 94 [survivor count not shown] and 101 % of control [survivor count not shown].
Take `CC(=O)OC[C@]12CC(=O)C(C)=C[C@H]1O[C@@H]1C(=O)[C@@H](OC(C)=O)[C@@]2(C)[C@@]12CO2`: the T/C (T/C endpoint: median survival time, dose: 0.12 mg/kg/injection, vehicle: water) is 111 % of control [survivor count not shown]; the T/C (T/C endpoint: median survival time, dose: 0.25 mg/kg/injection, vehicle: water) was 112 [survivor count not shown], 113 [survivor count not shown], 115 [survivor count not shown], 134 % of control [survivor count not shown]; the T/C (T/C endpoint: median survival time, dose: 0.5 mg/kg/injection, vehicle: water) is 114 [survivor count not shown], 119 [survivor count not shown], 121 % of control [survivor count not shown]; the T/C (T/C endpoint: median survival time, dose: 1.0 mg/kg/injection, vehicle: water) is 112 [survivor count not shown], 123 [survivor count not shown], 132 % of control [survivor count not shown]; the T/C (T/C endpoint: median survival time, dose: 2.0 mg/kg/injection, vehicle: water) was 133 [survivor count not shown], 134 [survivor count not shown], 138 % of control [survivor count not shown]; the T/C (T/C endpoint: median survival time, dose: 4.0 mg/kg/injection, vehicle: water) was 139 [survivor count not shown] and 159 % of control [survivor count not shown].
As to `CC1=C[C@H]2O[C@@H]3C[C@H]4OC(=O)/C=C\C=C\C5OC(C/C(C)=C\C(=O)OCC2(CC1)[C@]4(C)[C@]31CO1)OC5C` (stereo partly drawn), the T/C runs as follows: (T/C endpoint: mean survival time, dose: 0.78 mg/kg/injection, vehicle: saline + Tween-80 + alcohol) 110 % of control [survivor count not shown]; (T/C endpoint: mean survival time, dose: 0.78 mg/kg/injection, vehicle: saline with Tween-80) 100 % of control [survivor count not shown]; (T/C endpoint: mean survival time, dose: 1.56 mg/kg/injection, vehicle: saline + Tween-80 + alcohol) 108 % of control [survivor count not shown]; (T/C endpoint: mean survival time, dose: 1.56 mg/kg/injection, vehicle: saline with Tween-80) 98 % of control [survivor count not shown]; (T/C endpoint: mean survival time, dose: 3.12 mg/kg/injection, vehicle: saline + Tween-80 + alcohol) 112 % of control [survivor count not shown]; (T/C endpoint: mean survival time, dose: 6.25 mg/kg/injection, vehicle: saline + Tween-80 + alcohol) 110 % of control [survivor count not shown]. For the same compound, where the note is “T/C endpoint: mean survival time, dose: 12.5 mg/kg/injection, vehicle: saline + Tween-80 + alcohol”, the T/C was 125 % of control [survivor count not shown].
For `CC(=O)O[C@@H]1[C@@H](O)[C@H]2O[C@@H]3C=C(C)C(=O)[C@@H](O)[C@]3(CO)[C@]1(C)[C@]21CO1`, the T/C reads like this: (T/C endpoint: mean survival time, dose: 0.2 mg/kg/injection, vehicle: saline) 102 % of control [survivor count not shown]; (T/C endpoint: mean survival time, dose: 0.4 mg/kg/injection, vehicle: saline) 101 % of control [survivor count not shown]; (T/C endpoint: mean survival time, dose: 0.8 mg/kg/injection, vehicle: saline) 104 % of control [survivor count not shown]; (T/C endpoint: mean survival time, dose: 1.6 mg/kg/injection, vehicle: saline) 119 % of control [survivor count not shown].
In the case of `CC1=C[C@H]2O[C@@H]3C[C@H]4OC(=O)/C=C\C=C\C(C(C)O)OCC[C@@H](C)[C@H](O)C(=O)OC[C@@]2(CC1)[C@]4(C)[C@]31CO1` (stereo partly drawn), the T/C was 106 % of control [survivor count not shown] (T/C endpoint: median survival time, dose: 37.5 micrograms/kg/injection, vehicle: saline with Tween-80); 102 % of control [survivor count not shown] (T/C endpoint: median survival time, dose: 75.0 micrograms/kg/injection, vehicle: saline with Tween-80); 100 % of control [survivor count not shown] (T/C endpoint: median survival time, dose: 150.0 micrograms/kg/injection, vehicle: saline with Tween-80); 108 % of control [survivor count not shown] (T/C endpoint: median survival time, dose: 300.0 micrograms/kg/injection, vehicle: saline with Tween-80).
